Two substances from paper PMC5963799 can be followed below.

Chains of the proteins cited; added tags and fusions are not shown. Lines headed by an entry give the natural chain unless they say otherwise; changes in a name come on top.
UniProt Q7Z434: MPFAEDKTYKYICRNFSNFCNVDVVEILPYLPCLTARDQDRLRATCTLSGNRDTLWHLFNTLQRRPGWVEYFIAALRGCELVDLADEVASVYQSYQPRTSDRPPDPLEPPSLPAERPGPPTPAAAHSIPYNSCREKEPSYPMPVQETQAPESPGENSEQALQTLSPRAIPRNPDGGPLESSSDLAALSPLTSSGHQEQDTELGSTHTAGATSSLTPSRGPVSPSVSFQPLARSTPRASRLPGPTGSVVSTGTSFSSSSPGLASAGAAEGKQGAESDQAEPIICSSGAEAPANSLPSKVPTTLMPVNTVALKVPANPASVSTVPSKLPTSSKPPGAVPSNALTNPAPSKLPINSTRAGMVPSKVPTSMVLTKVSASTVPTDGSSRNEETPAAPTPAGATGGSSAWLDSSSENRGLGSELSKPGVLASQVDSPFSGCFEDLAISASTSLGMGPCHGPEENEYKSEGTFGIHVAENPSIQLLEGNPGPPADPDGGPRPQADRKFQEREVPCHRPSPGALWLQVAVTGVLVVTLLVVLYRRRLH
UniProt F5HEZ4: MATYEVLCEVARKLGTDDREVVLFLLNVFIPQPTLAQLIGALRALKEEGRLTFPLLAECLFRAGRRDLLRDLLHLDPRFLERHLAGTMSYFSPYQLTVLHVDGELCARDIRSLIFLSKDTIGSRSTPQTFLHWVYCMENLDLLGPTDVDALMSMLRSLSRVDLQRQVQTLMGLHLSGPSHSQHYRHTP

Results are given in words; binding and its absence hold for the method and conditions named. In cells and extracts the contact can be indirect. Some binding calls cover weakened binding; strength is not graded here.

In the assay the target is Flag-MAVS full-length (FL) (UniProt Q7Z434). Nature of the assay: co-IP; extracts of 293T cells transfected with Flag-MAVS and GST, GST-vFLIP, GST-DED1, GST-DED2 or GST-vFLIP helices; co-immunoprecipitated with MAVS (Fig 9A-B).

As to “GST-DED1 (vFLIP residues 1–90) (from UniProt F5HEZ4 1-90) (domain or fragment)”, the binding result is reported as “binds”.
The same measure for “GST-DED2 (vFLIP residues 85–188) (from UniProt F5HEZ4 85-188) (domain or fragment)”: “binds”.
